From PMC11971047 come the findings set out here.

Protein sequences, listed by entry. Tags and fused reporters are not part of them.
UniProt Q01341: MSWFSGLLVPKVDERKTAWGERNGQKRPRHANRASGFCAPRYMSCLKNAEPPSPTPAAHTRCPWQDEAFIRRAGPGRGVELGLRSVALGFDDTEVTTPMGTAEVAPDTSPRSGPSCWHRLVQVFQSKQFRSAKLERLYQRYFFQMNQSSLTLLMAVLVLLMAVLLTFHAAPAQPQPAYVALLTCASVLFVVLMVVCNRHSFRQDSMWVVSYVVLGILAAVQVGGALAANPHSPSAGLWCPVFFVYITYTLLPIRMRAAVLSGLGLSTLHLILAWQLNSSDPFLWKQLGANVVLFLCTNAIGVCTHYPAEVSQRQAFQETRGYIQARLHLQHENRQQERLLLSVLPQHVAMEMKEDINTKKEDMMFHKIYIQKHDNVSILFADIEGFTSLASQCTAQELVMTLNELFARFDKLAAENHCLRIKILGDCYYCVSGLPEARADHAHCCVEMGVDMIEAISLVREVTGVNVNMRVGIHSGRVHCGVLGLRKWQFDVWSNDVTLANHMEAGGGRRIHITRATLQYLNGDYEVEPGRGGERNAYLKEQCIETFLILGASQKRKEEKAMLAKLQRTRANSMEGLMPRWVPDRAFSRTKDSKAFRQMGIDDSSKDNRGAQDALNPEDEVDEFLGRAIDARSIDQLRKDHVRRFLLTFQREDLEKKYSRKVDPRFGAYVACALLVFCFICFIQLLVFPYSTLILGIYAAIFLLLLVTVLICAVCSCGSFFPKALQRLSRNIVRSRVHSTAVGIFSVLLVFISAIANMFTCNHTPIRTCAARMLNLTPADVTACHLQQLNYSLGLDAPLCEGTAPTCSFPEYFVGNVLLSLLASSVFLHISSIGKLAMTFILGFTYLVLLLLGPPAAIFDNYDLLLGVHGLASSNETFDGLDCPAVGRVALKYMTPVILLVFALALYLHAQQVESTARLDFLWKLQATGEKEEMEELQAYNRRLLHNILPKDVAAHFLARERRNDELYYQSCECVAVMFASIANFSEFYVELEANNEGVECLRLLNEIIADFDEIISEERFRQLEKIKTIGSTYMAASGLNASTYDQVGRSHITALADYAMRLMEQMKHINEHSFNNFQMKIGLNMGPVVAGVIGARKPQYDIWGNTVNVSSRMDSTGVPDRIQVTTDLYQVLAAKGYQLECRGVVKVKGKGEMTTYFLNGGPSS

No constants are given. Whether binding was seen depends on the method and setting. In cells and extracts the contact can be indirect. Some results given as binding are weak or reduced against the parent protein; the word gives no strength. Tags and fused reporters may be left off the sequences shown.

The experiment concerns the target mouse adenylyl cyclase 6, FLAG-tagged (mAC6-FLAG) (mouse) (UniProt Q01341). The experiment can be described thus: co-IP; CHO K1 cells stably expressing the HA-tagged protein, transiently transfected with the FLAG-tagged partner (or mCherry as control); lysis in 20 mM TRIS/HCl pH 8, 137 mM NaCl, 2 mM EDTA, 1% NP-40; pre-cleared on uncoupled NHS beads; anti-FLAG-M2 magnetic beads overnight at 4 °C; glycine pH 3.0 elution; western blot with HA antibody. A general note: In western blotting, separated proteins are transferred to a membrane and probed.

B1: mouse adenylyl cyclase 3, HA-tagged (mAC3-HA) (enzyme, UniProt Q8VHH7 1-1145)
chain: MPRNQGFSDPEYSAEYSAEYSVSLPSDPDRGVGRTHEISVRNSGSCLCLPRFMRLTFVPESLENLYQTYFKRQRHETLLVLVVFAALFDCYVVVMCAVVFSSDKLAPLMVAGFGLVLDIILFVLCKKGLLPDRVSRKVVPYLLWLLISAQIFSYLGLNFSRAHAASDTVGWQAFFVFSFFITLPLSLSPIVIISVVSCVVHTLVLGVTVAQQQQDELEGMQLLREILANVFLYLCAIIVGIMSYYMADRKHRKAFLEARQSLEVKMNLEEQSQQQENLMLSILPKHVADEMLKDMKKDESQKDQQQFNTMYMYRHENVSILFADIVGFTQLSSACSAQELVKLLNELFARFDKLAAKYHQLRIKILGDCYYCICGLPDYREDHAVCSILMGLAMVEAISYVREKTKTGVDMRVGVHTGTVLGGVLGQKRWQYDVWSTDVTVANKMEAGGIPGRVHISQSTMDCLKGEFDVEPGDGGSRCDYLDEKGIETYLIIASKPEVKKTAQNGLNGSAVPNGAPASSKPSSPALIETKEPNGSAHASGSTSEEAEEQEAQADNPSFPNPRRRLRLQDLADRVVDASEDEHELNQLLNEALLERESAQVVKKRNTFLLTMRFMDPEMETRYSVEKEKQSGAAFSCSCVVLFCTAMVEILIDPWLMTNYVTFVVGEVLLLILTICSMAAIFPRSFPKKLVAFSSWIDRTRWARNTWAMLAIFILVMANVVDMLSCLQYYMGPYNMTAGMELDGGCMENPKYYNYVAVLSLIATIMLVQVSHMVKLTLMLLVTGAVTALNLYAWCPVFDEYDHKRFQEKDSPMVALEKMQVLATPGLNGTDSRLPLVPSKYSMTVMMFVMMLSFYYFSRHVEKLARTLFLWKIEVHDQKERVYEMRRWNEALVTNMLPEHVARHFLGSKKRDEELYSQSYDEIGVMFASLPNFADFYTEESINNGGIECLRFLNEIISDFDSLLDNPKFRVITKIKTIGSTYMAASGVTPDVNTNGFTSSSKEEKSDKERWQHLADLADFALAMKDTLTNINNQSFNNFMLRIGMNKGGVLAGVIGARKPHYDIWGNTVNVASRMESTGVMGNIQVVEETQVILREYGFRFVRRGPIFVKGKGELLTFFLKGRDRPAAFPNGSSVTLPHQVVDNP
As for B1, the binding entry was “binds”.
